For assay [1], the target named is CD47 (human (endogenous in HK-2)) (UniProt Q08722). Briefly: co-IP; anti-CD47 or anti-γ-catenin on Protein G Sepharose beads, HK-2 cell lysate (IP buffer with protease inhibitors), 4°C 12 h; gel electrophoresis and blot; cells with or without OX-LDL.
The target is the same in assay [2]. The assay is described as above. This is another data set of the same source.

Protein sequences, listed by entry. Tags and fused reporters are not part of them. Residues count along the entry.
UniProt Q08722, residues 19-323: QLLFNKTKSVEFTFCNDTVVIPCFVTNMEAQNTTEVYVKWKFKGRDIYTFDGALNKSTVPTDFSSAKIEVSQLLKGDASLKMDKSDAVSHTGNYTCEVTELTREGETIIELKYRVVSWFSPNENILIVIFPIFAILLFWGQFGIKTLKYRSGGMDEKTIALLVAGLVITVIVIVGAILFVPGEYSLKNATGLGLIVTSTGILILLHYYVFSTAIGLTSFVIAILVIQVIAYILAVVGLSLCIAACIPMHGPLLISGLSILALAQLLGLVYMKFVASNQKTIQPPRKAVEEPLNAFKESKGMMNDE
UniProt P07996, residues 19-1170: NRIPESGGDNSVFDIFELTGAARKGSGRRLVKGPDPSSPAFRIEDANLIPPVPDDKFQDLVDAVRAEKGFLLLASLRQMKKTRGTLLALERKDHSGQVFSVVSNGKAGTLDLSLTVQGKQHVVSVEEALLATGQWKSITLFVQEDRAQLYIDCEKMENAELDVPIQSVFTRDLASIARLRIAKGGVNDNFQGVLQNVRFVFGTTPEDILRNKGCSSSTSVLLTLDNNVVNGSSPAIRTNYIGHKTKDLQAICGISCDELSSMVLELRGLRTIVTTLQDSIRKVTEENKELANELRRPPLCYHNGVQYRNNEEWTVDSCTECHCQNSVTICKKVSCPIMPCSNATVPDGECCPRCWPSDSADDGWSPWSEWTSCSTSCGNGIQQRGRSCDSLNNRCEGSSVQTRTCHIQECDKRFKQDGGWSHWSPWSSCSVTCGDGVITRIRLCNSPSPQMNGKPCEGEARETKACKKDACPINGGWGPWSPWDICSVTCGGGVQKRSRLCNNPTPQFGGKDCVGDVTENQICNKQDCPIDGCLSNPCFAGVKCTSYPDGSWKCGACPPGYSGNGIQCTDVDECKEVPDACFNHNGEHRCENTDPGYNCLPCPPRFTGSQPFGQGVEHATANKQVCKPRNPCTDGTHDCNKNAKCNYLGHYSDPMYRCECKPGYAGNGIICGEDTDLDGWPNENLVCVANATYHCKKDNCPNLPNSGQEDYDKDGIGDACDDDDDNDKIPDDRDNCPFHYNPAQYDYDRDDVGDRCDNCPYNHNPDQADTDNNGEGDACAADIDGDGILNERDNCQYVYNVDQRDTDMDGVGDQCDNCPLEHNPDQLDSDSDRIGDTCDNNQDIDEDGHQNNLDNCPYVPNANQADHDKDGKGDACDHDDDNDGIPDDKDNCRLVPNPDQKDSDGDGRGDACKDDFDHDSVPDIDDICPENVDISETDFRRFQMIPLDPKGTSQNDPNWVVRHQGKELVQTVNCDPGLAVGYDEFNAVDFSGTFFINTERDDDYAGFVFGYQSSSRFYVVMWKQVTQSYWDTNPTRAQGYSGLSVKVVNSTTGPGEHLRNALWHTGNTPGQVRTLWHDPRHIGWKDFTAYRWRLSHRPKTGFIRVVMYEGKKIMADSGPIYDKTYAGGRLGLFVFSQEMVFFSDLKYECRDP

Like-named read-outs stand apart in the source and are kept apart here. These are yes or no findings as the source states them, for the method shown. Binding seen in cells or lysates may run through a third protein. Some entries that bind do so weakly or less than the wild type.

Data on two molecules can be found in PMC7930485.

As for “thrombospondin-1 (from UniProt P07996 19-1170) (ligand)”, in assay [1], the binding result is reported as “binds”.

B1: γ-catenin (protein, UniProt P14923 1-745)
chain: MEVMNLMEQPIKVTEWQQTYTYDSGIHSGANTCVPSVSSKGIMEEDEACGRQYTLKKTTTYTQGVPPSQGDLEYQMSTTARAKRVREAMCPGVSGEDSSLLLATQVEGQATNLQRLAEPSQLLKSAIVHLINYQDDAELATRALPELTKLLNDEDPVVVTKAAMIVNQLSKKEASRRALMGSPQLVAAVVRTMQNTSDLDTARCTTSILHNLSHHREGLLAIFKSGGIPALVRMLSSPVESVLFYAITTLHNLLLYQEGAKMAVRLADGLQKMVPLLNKNNPKFLAITTDCLQLLAYGNQESKLIILANGGPQALVQIMRNYSYEKLLWTTSRVLKVLSVCPSNKPAIVEAGGMQALGKHLTSNSPRLVQNCLWTLRNLSDVATKQEGLESVLKILVNQLSVDDVNVLTCATGTLSNLTCNNSKNKTLVTQNSGVEALIHAILRAGDKDDITEPAVCALRHLTSRHPEAEMAQNSVRLNYGIPAIVKLLNQPNQWPLVKATIGLIRNLALCPANHAPLQEAAVIPRLVQLLVKAHQDAQRHVAAGTQQPYTDGVRMEEIVEGCTGALHILARDPMNRMEIFRLNTIPLFVQLLYSSVENIQRVAAGVLCELAQDKEAADAIDAEGASAPLMELLHSRNEGTATYAAAVLFRISEDKNPDYRKRVSVELTNSLFKHDPAAWEAAQSMIPINEPYGDDMDATYRPMYSSDVPLDPLEMHMDMDGDYPIDTYSDGLRPPYPTADHMLA
As for B1, the binding entry in assay [2] is on record as “binds”.
